Assay results reported in article PMC5628404.
Results are given in words; binding and its absence hold for the method and conditions named.

Amino acid sequences for entries named in this document (tags omitted).
UniProt P51668: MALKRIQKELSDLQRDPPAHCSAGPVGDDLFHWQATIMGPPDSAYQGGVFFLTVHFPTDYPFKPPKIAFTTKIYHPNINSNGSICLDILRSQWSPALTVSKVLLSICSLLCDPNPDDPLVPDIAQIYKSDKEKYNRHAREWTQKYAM

Molecular target: UBE2D1 (human) (UniProt P51668)
Test: SPR; Biacore; BRAP and UBE2D1 (Supplementary Data S3B); who was immobilised is not given; both purified

B1: BRAP (1–592) (full-length) (protein, UniProt Q7Z569 1-592)
chain: MSVSLVVIRLELAEHSPVPAGFGFSAAAGEMSDEEIKKTTLASAVACLEGKSPGEKVAIIHQHLGRREMTDVIIETMKSNPDELKTTVEERKSSEASPTAQRSKDHSKECINAAPDSPSKQLPDQISFFSGNPSVEIVHGIMHLYKTNKMTSLKEDVRRSAMLCILTVPAAMTSHDLMKFVAPFNEVIEQMKIIRDSTPNQYMVLIKFRAQADADSFYMTCNGRQFNSIEDDVCQLVYVERAEVLKSEDGASLPVMDLTELPKCTVCLERMDESVNGILTTLCNHSFHSQCLQRWDDTTCPVCRYCQTPEPVEENKCFECGVQENLWICLICGHIGCGRYVSRHAYKHFEETQHTYAMQLTNHRVWDYAGDNYVHRLVASKTDGKIVQYECEGDTCQEEKIDALQLEYSYLLTSQLESQRIYWENKIVRIEKDTAEEINNMKTKFKETIEKCDNLEHKLNDLLKEKQSVERKCTQLNTKVAKLTNELKEEQEMNKCLRANQVLLQNKLKEEERVLKETCDQKDLQITEIQEQLRDVMFYLETQQKINHLPAETRQEIQEGQINIAMASASSPASSGGSGKLPSRKGRSKRGK
binding: no binding
